# Screening data, single-dose tests

By UniProt entry, the sequences of proteins in these tests, tags left out. Residues count along the entry.
UniProt Q8IDJ8, 1-583: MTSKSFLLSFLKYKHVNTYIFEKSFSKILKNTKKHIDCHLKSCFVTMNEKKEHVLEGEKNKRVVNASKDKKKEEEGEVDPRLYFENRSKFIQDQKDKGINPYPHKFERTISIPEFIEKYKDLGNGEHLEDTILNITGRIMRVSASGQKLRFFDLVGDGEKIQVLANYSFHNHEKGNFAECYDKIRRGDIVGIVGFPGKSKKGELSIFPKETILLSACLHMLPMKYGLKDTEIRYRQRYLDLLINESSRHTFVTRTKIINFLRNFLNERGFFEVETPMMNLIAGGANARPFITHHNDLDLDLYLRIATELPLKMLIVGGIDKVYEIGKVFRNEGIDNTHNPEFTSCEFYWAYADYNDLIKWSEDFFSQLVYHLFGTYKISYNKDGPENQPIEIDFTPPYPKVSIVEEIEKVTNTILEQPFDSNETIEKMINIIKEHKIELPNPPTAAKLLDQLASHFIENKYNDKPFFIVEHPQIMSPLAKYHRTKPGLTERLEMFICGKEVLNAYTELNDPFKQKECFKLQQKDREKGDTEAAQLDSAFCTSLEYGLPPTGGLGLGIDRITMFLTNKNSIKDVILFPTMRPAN
UniProt Q4DA54, 1-478: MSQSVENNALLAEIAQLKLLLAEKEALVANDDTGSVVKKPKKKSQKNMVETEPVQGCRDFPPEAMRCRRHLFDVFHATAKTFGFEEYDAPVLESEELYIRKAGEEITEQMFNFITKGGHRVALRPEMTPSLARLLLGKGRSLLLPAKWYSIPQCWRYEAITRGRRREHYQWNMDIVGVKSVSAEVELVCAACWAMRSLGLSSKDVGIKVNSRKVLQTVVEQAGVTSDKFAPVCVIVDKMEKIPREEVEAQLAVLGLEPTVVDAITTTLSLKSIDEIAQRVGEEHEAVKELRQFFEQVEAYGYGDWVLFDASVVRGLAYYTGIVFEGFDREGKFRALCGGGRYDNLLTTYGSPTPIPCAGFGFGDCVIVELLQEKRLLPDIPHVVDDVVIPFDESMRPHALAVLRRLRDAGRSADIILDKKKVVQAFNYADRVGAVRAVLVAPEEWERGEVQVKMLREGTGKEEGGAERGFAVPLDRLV
UniProt I6X8D2, whole entry: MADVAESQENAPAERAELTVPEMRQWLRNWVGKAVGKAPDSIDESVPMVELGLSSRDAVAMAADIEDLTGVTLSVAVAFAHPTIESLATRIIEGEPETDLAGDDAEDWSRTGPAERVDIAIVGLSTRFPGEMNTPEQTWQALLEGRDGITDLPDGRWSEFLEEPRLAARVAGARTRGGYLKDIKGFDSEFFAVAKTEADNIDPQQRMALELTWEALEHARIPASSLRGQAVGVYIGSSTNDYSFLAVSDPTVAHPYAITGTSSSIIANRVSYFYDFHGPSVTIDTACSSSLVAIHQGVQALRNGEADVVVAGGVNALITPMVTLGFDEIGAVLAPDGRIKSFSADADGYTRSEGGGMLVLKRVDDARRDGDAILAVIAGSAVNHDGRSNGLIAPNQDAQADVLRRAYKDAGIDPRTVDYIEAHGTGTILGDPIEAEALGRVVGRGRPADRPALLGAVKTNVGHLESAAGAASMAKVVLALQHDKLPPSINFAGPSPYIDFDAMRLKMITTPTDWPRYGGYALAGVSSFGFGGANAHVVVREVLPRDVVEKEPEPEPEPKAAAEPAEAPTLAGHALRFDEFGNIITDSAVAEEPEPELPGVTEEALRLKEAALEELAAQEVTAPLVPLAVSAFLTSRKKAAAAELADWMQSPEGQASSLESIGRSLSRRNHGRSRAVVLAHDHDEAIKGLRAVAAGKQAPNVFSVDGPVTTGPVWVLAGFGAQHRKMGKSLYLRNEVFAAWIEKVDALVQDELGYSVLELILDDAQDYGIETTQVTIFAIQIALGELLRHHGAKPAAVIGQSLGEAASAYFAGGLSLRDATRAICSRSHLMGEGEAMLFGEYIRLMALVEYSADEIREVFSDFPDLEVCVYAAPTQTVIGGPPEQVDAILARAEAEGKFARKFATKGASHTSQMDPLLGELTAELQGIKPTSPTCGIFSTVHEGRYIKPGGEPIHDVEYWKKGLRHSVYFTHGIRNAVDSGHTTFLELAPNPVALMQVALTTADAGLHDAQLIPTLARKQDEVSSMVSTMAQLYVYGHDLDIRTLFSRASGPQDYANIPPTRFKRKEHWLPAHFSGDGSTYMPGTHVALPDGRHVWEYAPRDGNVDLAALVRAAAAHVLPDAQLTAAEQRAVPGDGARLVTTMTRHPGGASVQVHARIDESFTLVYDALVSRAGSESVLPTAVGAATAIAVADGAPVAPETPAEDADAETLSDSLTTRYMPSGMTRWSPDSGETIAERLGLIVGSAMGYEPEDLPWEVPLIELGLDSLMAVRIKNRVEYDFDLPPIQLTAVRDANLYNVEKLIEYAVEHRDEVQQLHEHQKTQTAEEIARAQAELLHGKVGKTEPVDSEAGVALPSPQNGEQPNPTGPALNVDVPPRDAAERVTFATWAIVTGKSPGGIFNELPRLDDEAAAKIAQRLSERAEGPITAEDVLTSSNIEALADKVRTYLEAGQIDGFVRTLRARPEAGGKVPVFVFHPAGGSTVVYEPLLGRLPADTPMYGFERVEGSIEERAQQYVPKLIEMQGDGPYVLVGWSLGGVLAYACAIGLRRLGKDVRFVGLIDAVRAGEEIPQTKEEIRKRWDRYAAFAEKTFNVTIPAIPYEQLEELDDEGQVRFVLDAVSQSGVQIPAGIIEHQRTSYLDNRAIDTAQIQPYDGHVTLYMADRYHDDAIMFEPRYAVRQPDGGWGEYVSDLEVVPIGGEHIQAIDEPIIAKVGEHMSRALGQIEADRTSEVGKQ

Measurements from “University of Dundee, Small-Polar-MMV Screening Library” (2021), ChEMBL document CHEMBL3988442.

PfKRS1: 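Enzyme assay of the cytosolic lysyl-tRNA synthetase in 384-well plates, read by luminescence. Target: Lysine-tRNA ligase, Plasmodium falciparum 3D7 (UniProt Q8IDJ8). Concentration: 30 µM. Higher reads as stronger inhibition, judged from the few compounds that gave an IC50. Of about 69,000 compounds tested this way, about 49 (0.071%) reached 50% or more in at least one test.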
TcHisRS: 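Histidine-tRNA ligase, Trypanosoma cruzi CL Brener (UniProt Q4DA54). Enzyme assay of histidyl-tRNA synthetase; the read-out is not stated. Tested at 30 µM. Direction is inferred from retests: higher values go with stronger inhibition. Size under these conditions: about 69,000 compounds, about 31 of them at 50% or above in at least one test.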
Leishmania in macrophages: 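Cell assay of Leishmania donovani living inside macrophages; the read-out is not stated. Tested at 30 µM. Higher reads as stronger inhibition (inferred: compounds with an IC50 in retests scored well above the rest). Size under these conditions: about 69,000 compounds, about 1,000 of them at 50% or above in at least one test.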
Pks13 thioesterase: 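Polyketide synthase Pks13, Mycobacterium tuberculosis (UniProt I6X8D2). Enzyme assay of the thioesterase domain of polyketide synthase 13; the read-out is not stated. Compounds at 30 µM. Higher reads as stronger inhibition (inferred from which compounds were picked for retests). Of about 67,000 compounds tested this way, about 300 (0.46%) reached 50% or more in at least one test.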

The filed quantity is “Percent Effect” (%). The controls that fix the scale are not given in the record; negative values are as filed. The compounds are a random part of those screened.

For c1cnc(CC2COCCN(C3CCCCC3)C2)cn1 (stereo unspecified) the result was PfKRS1: 0.9524%; TcHisRS: 9.429%; Leishmania in macrophages: 20.23%; Pks13 thioesterase: -4.759%. CC(CNC(=O)c1cnc[nH]1)Oc1ccc(Cl)cc1 (stereo unspecified) gave PfKRS1: -2.918%; TcHisRS: 6.468%; Leishmania in macrophages: -8.982%; Pks13 thioesterase: 15.39%. CCC(CC)C(=O)NCc1cn2cc(Br)ccc2n1 gave PfKRS1: 3.339%; TcHisRS: 6.667%; Leishmania in macrophages: 14.61%; Pks13 thioesterase: -13.52%. Cc1nnc(N2C[C@@H]3CCCO[C@@H]3[C@H](N3CCCC3=O)C2)s1 read PfKRS1: 4.182%; TcHisRS: 3.797%; Pks13 thioesterase: -22.95%. Cc1c(S(=O)(=O)N2CCOCC2)cc2c(C)cc(=O)n3c2c1CCC3 read PfKRS1: -1.375%; TcHisRS: 2.609%; Leishmania in macrophages: -50.57%; Pks13 thioesterase: -6.54%. Result for CCn1ncc2c1CCCC2NCc1cccc2c1OCO2 (stereo unspecified) was PfKRS1: 3.787%; TcHisRS: 3.38%; Leishmania in macrophages: 23.22%; Pks13 thioesterase: 2.371%. COCCNC(=O)CNC(=O)c1nc(Cc2c(Cl)cccc2Cl)no1 gave PfKRS1: 0.6769%; TcHisRS: 6.186%; Leishmania in macrophages: 6.746%; Pks13 thioesterase: -8.748%. Result for CCN1CC2(CC1=O)CN(C(=O)NC)CCN(S(C)(=O)=O)C2 (stereo unspecified) was PfKRS1: 6.487%; TcHisRS: 6.135%; Leishmania in macrophages: 12.13%; Pks13 thioesterase: -28.11%.

O=C(NCCc1cccs1)NC1CCN(c2ncccn2)CC1 read PfKRS1: 1.182%; TcHisRS: 14.07%; Leishmania in macrophages: 45.11%; Pks13 thioesterase: -4.42%. Result for CN(C(=O)c1ccc(S(=O)(=O)NC(C)(C)C)cc1)C1(C#N)CCC1 was PfKRS1: -0.2069%; TcHisRS: 9.135%; Leishmania in macrophages: 6.383%; Pks13 thioesterase: 9.72%. CN1CC(=O)N(c2cccnc2)CC12CCN(C(=O)c1cccnc1)C2.O=C(O)C(F)(F)F.O=C(O)C(F)(F)F (stereo unspecified) read Leishmania in macrophages: -30.05%. With COCCCN1C(=O)CC[C@H]2CN(Cc3ncc[nH]3)CC[C@H]21 the screen gave PfKRS1: 0.2292%; TcHisRS: -2.89%; Pks13 thioesterase: -34.07%. O=C(Nc1cccc2c1CCCC2)C1CCCN1c1nccs1 (stereo unspecified) read PfKRS1: 6.517%; TcHisRS: -3.053%; Leishmania in macrophages: 41.74%; Pks13 thioesterase: -2.635%. Cc1ncsc1C(=O)NCCSCc1cccs1 read PfKRS1: 2.217%; TcHisRS: -1.149%; Leishmania in macrophages: 19.77%. CS(=O)(=O)c1ccccc1NCc1ccc(Cn2ccnc2)cc1 gave PfKRS1: 3.618%; TcHisRS: -0.4425%; Leishmania in macrophages: 28.01%; Pks13 thioesterase: -14.94%. For CN1CCN(c2cc(CNCc3cccc4c3OCO4)ccn2)CC1 the result was PfKRS1: 3.324%; TcHisRS: 3.175%; Leishmania in macrophages: 47.43%; Pks13 thioesterase: -27.17%.

O=C(O)C(F)(F)F.c1csc(NCc2n[nH]c3c2CCN(CC2CC2)C3)n1 gave Leishmania in macrophages: -7.43%. O=C(O)C(F)(F)F.O=C(O)C(F)(F)F.[H][C@]12CCN(c3cnn(C)c3)C(=O)[C@]1([H])CN(Cc1ccncc1)C2 read Leishmania in macrophages: 19.03%. With Cc1cnn(C2CCCN(C(=O)c3cc4nc(C)ccc4o3)C2)c1 (stereo unspecified) the screen gave PfKRS1: 2.537%; TcHisRS: 5.572%; Leishmania in macrophages: -14.62%; Pks13 thioesterase: -18.34%. For CC(C)c1nc2n(n1)CC(NCc1nnc(C(C)C)o1)CC2 (stereo unspecified) the result was PfKRS1: 2.023%; TcHisRS: 0%; Leishmania in macrophages: 22.5%; Pks13 thioesterase: -8.915%. Cc1cc(Br)cnc1NCCN1CCC(N(C)C)CC1 read PfKRS1: 5.928%; TcHisRS: -1.685%; Leishmania in macrophages: 96.65%; Pks13 thioesterase: -8.159%. For c1coc(-c2nc3c(c(N4CCCN5CCC[C@H]5C4)n2)CCNCC3)c1 the result was PfKRS1: 0.644%; TcHisRS: 4.865%. CN1CCN(Cc2cccnc2)C2(CCN(Cc3ccccn3)C2)C1=O.O=C(O)C(F)(F)F.O=C(O)C(F)(F)F.O=C(O)C(F)(F)F (stereo unspecified) gave Leishmania in macrophages: 4.962%. For Cn1cccc1C(=O)N1CCO[C@@H]2CN(Cc3ccco3)C[C@@H]2C1 the result was PfKRS1: 3.567%; TcHisRS: 9.524%; Pks13 thioesterase: -8.879%.

With CCOC(=O)c1cc(C(C)(O)CCC=C(C)C)on1 (stereo unspecified) the screen gave PfKRS1: -0.7281%; TcHisRS: 0.5181%; Leishmania in macrophages: 9.423%; Pks13 thioesterase: 0.1544%. Result for Cc1ccc(Nc2nccc(C3CCCN(CC(=O)N(C)C)C3)n2)nc1 (stereo unspecified) was PfKRS1: 0.2741%; TcHisRS: 8.197%; Leishmania in macrophages: 29.77%; Pks13 thioesterase: -28.72%. CCN1CC2(CC1=O)CN(Cc1cccs1)CCN(C(=O)C(C)C)C2 (stereo unspecified) gave PfKRS1: 4.01%; TcHisRS: 2.674%; Leishmania in macrophages: -9.683%; Pks13 thioesterase: -2.523%. CC(C)N(CC(=O)Nc1cccc(C(=O)N(C)C)c1)C1CC1 gave PfKRS1: 2.816%; TcHisRS: 6.667%; Leishmania in macrophages: 21.73%; Pks13 thioesterase: 0.6482%. Result for O=C(CCCn1ccnc1)N1CCC2(CC1)[C@H](O)C[C@@H]2OCCO was PfKRS1: -0.6702%; TcHisRS: 0%; Leishmania in macrophages: 23.48%; Pks13 thioesterase: -25.64%. Result for Cc1ccc(S(=O)(=O)NCC2(O)CCOc3ccccc32)s1 (stereo unspecified) was PfKRS1: 6.647%; TcHisRS: 1.02%; Leishmania in macrophages: 12.05%; Pks13 thioesterase: -3.847%. For COc1nn(C)c2c1CCCN(C(=O)c1cccc(C)n1)C2 the result was PfKRS1: 5.591%; TcHisRS: 4.233%; Pks13 thioesterase: -1.106%. With COc1ccc2c(c1)CC(NCc1cccc(CO)c1)CC2 (stereo unspecified) the screen gave PfKRS1: -1.443%; TcHisRS: -3.448%; Leishmania in macrophages: 30.48%; Pks13 thioesterase: -35.61%.

With COc1c(NC(=O)C(C)CCOc2ccccc2)c(C)nn1C (stereo unspecified) the screen gave PfKRS1: 8.68%; TcHisRS: 8.901%; Leishmania in macrophages: 15.18%; Pks13 thioesterase: -44.22%. With CN(C)Cc1nc(-n2cnc(C(=O)NC3CCCC3)c2)n2ccccc12 the screen gave PfKRS1: 4.927%; TcHisRS: 9.497%; Leishmania in macrophages: 3.271%; Pks13 thioesterase: -12.33%.

Some entries from above, unchanged:

* O=C(O)C(F)(F)F.O=C(O)C(F)(F)F.[H][C@]12CCN(c3cnn(C)c3)C(=O)[C@]1([H])CN(Cc1ccncc1)C2 : Leishmania in macrophages: 19.03%
* Cc1ncsc1C(=O)NCCSCc1cccs1 : PfKRS1: 2.217%; TcHisRS: -1.149%; Leishmania in macrophages: 19.77%